Reference: patent publication US7398119B2, “Assessing blood brain barrier dynamics or identifying or measuring selected substances, including ethanol or toxins, in a subject by analyzing Raman spectrum signals” (Childrens Hospital Los Angeles, priority 1998, dated 2008)

Experiment: Resonant Raman (RR) spectroscopy detection at 406.7 nm excitation

| SMILES | lowest concentration at which characteristic peaks can be detected (in MeOH, excitation 406 nm) [micrograms/ml] | lowest concentration at which the peaks 1171/cm and 1576/cm can be detected (in ethanol, excitation about 406.7 nm) [µmol] |
| --- | --- | --- |
| C[C@@H]1[C@H](O)[C@@H](C)/C=C/C=C/C=C/C=C/C=C/C=C/C=C/[C@H](O[C@@H]2O[C@H](C)[C@@H](O)[C@H](N)[C@@H]2O)C[C@@H]2O[C@](O)(C[C@@H](O)C[C@@H](O)[C@H](O)CC[C@@H](O)C[C@@H](O)CC(=O)O[C@H]1C)C[C@H](O)[C@H]2C(=O)O [amphotericin, amphotericin B] | 0.05 | – |
| CC1=C(/C=C/C(C)=C/C=C/C(C)=C/C(=O)Nc2ccc(O)cc2)C(C)(C)CCC1 [fenretinide] | – | 0.1 |
